From ChEMBL document CHEMBL1909046, “DrugMatrix in vitro pharmacology data” come the findings set out here.

The chains behind the UniProt entries cited, without tags or fusion partners. Where a name states a change or a piece, a line headed by the entry shows the natural chain unless it says otherwise.
UniProt P41595, whole entry: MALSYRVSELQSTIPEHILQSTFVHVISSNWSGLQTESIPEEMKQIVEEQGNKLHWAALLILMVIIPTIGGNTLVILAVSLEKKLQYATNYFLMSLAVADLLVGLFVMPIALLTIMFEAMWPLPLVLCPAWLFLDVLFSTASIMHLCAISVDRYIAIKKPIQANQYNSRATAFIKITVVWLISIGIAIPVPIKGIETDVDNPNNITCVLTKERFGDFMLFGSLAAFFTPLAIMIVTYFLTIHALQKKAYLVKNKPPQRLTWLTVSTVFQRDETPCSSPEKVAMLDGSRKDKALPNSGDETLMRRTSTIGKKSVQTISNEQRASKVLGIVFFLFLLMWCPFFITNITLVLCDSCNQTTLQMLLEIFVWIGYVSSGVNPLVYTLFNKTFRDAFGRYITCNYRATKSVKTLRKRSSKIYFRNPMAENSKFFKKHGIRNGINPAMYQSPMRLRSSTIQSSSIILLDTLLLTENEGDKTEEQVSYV
UniProt P43140: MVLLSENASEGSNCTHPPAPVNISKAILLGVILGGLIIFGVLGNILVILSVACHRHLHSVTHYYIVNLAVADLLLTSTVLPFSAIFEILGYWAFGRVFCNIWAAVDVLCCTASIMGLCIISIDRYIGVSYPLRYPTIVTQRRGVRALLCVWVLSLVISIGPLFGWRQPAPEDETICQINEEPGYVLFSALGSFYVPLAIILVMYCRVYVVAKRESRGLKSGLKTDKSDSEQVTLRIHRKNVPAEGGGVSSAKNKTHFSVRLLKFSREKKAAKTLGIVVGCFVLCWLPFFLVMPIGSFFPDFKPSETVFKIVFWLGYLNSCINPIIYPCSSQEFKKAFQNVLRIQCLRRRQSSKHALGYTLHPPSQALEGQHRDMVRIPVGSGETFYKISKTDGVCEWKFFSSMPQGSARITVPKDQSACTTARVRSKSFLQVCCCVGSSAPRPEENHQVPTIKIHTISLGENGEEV
UniProt P12530: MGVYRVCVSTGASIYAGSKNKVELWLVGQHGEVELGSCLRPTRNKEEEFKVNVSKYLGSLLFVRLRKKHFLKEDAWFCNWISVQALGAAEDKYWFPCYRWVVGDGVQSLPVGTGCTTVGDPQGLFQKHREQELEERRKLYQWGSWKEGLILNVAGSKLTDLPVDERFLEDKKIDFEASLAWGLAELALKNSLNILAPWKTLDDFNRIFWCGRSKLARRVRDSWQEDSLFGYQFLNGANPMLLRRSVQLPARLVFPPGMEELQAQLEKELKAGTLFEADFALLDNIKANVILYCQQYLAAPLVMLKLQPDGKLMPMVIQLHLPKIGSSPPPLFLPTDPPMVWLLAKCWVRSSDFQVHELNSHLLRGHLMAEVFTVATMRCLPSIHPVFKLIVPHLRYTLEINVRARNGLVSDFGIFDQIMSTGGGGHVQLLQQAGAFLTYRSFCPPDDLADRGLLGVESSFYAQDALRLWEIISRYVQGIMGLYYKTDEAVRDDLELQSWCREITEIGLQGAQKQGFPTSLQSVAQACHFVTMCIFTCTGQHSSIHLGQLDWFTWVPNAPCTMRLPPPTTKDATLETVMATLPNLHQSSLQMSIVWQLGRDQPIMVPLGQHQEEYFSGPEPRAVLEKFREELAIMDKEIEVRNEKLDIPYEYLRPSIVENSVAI

For assay [1], the target named is 5-hydroxytryptamine receptor 2B (Homo sapiens, UniProt P41595). The assay is classed as cell membranes, Membrane. To be noted: cho-k1. Further: in other assays of this panel Not Active means under 50% inhibition at 10 µM.
Assay [2] concerns the target Alpha-1A adrenergic receptor (Rattus norvegicus, UniProt P43140). Briefly: DRUGMATRIX: Alpha-1A adrenergic receptor radioligand binding (ligand: prazosin). The conditions noted are these: Not Active = under 50% inhibition at 10 µM. The assay is classed as cell membranes, Wistar, Submaxillary gland, Membrane.
The target of assay [3] is Polyunsaturated fatty acid lipoxygenase ALOX15 (Oryctolagus cuniculus, UniProt P12530). The format is tissue-based. To be noted: reticulocytes.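 Further: inhibition of 15-lipoxygenase enzyme activity measured with linoleic acid as the substrate; in other assays of this panel Not Active means under 50% inhibition at 10 µM.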
In the next assay the target is Adenosine receptor A2a (Homo sapiens, UniProt P29274). Briefly: DRUGMATRIX: Adenosine A2A radioligand binding (ligand: […]). The assay is classed as cell membranes, Membrane. To be noted: hek293; Not Active = under 50% inhibition at 10 µM.

Turning to `CCCCCCCCc1ccc(O)cc1` [4-OCTYLPHENOL], the IC50 entry in assay [1] and in assay [2] was “Not Active” in each case.

`CC(C)(C)c1ccc(C(=O)CCCN2CCC(OC(c3ccccc3)c3ccccc3)CC2)cc1` [EBASTINE]: the IC50 entry (in assay [3]; on Adenosine receptor A2a) was “Not Active” throughout.
